In the supplement of paper PMC10849652:
This is one part of the list.

The chains behind the UniProt entries cited, without tags or fusion partners. Where a name states a change or a piece, a line headed by the entry shows the natural chain unless it says otherwise.
UniProt Q2M2Z5: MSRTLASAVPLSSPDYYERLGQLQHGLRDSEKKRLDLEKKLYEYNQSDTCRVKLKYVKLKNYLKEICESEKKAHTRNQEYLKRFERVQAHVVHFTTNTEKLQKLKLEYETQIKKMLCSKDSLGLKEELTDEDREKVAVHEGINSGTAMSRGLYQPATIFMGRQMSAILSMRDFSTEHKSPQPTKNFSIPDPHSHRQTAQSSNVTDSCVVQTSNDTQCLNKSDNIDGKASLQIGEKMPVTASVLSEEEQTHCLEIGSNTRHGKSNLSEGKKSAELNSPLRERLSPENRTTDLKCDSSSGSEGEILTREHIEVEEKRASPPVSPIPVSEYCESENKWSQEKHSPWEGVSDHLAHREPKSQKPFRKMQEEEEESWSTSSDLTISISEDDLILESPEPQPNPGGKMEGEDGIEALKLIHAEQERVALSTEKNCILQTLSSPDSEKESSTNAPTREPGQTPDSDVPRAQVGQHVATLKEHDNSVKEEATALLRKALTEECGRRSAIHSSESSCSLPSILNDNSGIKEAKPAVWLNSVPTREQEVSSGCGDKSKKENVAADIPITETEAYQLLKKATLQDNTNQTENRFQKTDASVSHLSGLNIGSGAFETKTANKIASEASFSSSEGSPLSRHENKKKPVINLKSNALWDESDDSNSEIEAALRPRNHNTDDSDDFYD
UniProt Q9NS87: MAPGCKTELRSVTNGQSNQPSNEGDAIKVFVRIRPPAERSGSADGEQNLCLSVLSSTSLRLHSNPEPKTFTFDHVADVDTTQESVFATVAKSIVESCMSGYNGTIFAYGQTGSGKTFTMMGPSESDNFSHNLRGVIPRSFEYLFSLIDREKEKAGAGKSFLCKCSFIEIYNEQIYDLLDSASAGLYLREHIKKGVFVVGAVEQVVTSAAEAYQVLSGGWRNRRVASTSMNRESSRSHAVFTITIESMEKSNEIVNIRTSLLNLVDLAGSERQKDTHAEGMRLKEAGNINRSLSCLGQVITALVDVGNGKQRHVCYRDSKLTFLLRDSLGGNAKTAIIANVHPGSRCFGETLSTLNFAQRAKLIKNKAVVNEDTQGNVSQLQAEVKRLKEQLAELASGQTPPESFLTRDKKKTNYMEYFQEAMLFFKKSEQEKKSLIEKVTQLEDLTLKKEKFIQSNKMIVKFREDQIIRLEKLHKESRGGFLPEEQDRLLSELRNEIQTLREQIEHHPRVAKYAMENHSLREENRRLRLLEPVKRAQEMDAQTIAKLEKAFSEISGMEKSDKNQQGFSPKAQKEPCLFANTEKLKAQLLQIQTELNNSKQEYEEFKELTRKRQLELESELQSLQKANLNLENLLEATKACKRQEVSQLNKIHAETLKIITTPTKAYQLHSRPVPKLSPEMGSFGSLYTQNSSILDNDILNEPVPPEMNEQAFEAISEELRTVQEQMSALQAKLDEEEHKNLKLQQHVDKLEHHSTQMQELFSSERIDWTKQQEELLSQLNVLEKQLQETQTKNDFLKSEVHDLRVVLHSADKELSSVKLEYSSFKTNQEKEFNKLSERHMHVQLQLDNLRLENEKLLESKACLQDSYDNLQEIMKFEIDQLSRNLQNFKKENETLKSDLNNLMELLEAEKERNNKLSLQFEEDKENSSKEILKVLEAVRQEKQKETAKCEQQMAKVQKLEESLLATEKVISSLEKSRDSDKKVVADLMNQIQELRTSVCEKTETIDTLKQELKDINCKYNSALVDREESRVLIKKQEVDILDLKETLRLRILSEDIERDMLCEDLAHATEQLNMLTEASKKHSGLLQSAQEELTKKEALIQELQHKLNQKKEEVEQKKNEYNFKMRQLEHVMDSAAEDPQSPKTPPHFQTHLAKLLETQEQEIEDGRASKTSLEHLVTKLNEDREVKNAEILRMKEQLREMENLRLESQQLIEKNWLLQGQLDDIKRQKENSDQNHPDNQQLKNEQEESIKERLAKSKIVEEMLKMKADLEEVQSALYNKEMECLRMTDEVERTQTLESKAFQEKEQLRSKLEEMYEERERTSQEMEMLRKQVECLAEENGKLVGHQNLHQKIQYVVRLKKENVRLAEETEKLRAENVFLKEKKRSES
UniProt P83111: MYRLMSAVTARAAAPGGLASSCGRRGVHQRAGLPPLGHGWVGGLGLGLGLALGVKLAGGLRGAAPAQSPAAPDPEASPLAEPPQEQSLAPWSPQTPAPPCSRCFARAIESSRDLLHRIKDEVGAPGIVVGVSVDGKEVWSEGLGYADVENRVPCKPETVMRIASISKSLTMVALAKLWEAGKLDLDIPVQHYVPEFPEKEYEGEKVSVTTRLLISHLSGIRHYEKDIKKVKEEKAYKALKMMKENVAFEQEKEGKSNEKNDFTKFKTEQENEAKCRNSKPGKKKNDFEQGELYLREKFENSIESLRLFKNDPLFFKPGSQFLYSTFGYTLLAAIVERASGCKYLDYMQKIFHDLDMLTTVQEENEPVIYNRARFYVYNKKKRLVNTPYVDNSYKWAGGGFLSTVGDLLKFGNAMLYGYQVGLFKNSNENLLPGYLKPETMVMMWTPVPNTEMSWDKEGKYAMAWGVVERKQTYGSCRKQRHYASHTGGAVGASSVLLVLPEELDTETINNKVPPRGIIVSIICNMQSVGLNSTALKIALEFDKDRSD
UniProt Q6IAA8, whole entry, looked up: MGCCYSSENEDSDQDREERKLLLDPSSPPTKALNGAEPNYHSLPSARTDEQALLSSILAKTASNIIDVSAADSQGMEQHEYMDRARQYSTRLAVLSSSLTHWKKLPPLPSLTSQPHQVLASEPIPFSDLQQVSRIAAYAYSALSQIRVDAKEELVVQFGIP
UniProt Q1ED39: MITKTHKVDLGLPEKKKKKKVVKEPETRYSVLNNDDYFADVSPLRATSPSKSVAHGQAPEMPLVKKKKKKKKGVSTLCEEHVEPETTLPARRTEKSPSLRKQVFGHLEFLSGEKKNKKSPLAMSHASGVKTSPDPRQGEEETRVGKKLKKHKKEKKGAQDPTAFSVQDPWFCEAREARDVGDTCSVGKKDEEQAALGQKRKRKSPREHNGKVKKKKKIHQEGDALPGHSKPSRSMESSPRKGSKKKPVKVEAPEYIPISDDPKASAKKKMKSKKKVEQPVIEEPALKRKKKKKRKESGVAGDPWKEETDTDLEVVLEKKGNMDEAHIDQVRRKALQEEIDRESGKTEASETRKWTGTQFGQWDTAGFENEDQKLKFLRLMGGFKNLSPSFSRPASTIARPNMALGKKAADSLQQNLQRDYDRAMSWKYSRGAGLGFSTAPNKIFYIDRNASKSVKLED
UniProt O60333: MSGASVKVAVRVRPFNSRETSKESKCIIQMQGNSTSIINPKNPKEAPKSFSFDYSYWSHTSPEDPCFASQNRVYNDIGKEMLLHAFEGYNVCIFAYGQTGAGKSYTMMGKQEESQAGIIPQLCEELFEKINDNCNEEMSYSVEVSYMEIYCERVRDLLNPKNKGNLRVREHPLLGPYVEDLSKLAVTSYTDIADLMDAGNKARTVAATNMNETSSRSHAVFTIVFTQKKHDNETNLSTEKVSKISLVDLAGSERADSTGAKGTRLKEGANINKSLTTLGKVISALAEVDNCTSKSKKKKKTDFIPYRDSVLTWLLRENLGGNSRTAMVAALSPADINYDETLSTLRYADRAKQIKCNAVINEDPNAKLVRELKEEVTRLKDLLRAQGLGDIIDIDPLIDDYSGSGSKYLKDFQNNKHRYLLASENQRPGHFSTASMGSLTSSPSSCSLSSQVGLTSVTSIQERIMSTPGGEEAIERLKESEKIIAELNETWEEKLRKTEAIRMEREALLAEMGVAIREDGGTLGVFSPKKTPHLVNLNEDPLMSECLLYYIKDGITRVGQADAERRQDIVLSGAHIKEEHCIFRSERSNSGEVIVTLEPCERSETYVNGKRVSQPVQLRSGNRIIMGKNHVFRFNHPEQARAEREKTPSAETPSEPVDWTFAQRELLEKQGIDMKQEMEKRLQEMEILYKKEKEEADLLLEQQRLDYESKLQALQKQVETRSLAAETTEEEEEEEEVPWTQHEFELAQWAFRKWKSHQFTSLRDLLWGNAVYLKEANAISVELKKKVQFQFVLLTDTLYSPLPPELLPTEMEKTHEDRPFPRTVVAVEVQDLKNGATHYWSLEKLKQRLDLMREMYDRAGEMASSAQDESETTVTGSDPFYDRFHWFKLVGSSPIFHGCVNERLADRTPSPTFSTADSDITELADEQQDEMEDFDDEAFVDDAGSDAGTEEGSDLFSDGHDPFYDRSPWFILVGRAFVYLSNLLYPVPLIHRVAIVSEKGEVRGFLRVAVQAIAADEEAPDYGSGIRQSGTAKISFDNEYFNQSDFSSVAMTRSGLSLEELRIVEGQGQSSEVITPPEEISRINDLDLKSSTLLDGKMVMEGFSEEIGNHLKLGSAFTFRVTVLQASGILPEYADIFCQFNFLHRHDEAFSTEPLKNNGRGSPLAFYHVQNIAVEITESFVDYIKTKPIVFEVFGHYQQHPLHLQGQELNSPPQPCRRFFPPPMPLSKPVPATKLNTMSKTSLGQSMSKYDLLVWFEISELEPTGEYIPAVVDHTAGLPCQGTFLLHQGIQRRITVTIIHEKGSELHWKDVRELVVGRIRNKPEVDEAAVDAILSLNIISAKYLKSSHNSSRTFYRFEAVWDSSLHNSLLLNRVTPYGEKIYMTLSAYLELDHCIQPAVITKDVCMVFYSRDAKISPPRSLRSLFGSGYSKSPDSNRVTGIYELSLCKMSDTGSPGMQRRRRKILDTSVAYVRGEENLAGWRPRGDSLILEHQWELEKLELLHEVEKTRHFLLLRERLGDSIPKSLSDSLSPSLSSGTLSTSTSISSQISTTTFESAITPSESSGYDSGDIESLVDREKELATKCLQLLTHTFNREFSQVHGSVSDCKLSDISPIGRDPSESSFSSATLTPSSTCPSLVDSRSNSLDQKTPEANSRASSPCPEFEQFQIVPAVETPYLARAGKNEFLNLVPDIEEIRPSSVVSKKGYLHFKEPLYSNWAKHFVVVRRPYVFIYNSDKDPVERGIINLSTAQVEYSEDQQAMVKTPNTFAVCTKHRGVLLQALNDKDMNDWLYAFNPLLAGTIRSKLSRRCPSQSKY
UniProt Q14974, whole entry, looked up: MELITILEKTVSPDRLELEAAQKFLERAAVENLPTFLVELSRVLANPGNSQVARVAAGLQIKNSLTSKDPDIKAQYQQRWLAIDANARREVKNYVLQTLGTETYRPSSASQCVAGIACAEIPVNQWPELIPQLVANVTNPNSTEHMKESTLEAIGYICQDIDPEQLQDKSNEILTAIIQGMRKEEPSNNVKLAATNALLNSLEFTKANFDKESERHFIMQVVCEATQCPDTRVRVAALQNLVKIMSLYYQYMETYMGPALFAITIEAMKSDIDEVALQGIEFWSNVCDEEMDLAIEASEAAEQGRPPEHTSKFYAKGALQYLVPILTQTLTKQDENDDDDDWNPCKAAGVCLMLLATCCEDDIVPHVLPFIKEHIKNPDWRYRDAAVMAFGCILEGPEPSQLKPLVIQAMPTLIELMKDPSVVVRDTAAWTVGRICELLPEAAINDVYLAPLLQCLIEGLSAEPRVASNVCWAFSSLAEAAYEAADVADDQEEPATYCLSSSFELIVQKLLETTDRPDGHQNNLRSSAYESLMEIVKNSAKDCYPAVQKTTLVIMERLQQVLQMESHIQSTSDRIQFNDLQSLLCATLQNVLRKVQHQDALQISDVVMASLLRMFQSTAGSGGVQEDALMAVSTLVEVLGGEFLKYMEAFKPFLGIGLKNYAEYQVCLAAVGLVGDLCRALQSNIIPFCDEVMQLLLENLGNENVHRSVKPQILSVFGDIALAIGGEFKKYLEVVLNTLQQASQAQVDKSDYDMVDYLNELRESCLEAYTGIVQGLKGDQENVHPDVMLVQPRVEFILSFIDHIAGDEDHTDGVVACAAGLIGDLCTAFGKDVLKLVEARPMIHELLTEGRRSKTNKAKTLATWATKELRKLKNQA
UniProt Q96AT1: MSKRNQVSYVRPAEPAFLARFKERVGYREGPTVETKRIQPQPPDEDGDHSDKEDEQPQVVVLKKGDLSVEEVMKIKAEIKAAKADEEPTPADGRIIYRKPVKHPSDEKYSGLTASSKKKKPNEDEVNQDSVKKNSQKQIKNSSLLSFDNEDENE
UniProt Q14657: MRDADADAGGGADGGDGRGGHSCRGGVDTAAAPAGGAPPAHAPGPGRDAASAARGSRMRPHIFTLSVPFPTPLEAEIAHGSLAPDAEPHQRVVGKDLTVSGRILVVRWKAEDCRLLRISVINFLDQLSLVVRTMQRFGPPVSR
UniProt Q06136: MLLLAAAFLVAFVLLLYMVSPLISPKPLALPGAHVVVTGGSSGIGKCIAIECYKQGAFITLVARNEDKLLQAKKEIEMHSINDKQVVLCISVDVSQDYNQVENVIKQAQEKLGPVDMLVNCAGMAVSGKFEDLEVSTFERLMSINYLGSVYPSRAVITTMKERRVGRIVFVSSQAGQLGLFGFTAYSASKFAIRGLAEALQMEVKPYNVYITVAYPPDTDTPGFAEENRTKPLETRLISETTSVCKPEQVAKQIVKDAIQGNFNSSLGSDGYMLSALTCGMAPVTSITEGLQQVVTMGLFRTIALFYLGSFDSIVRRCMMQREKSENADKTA

Tests used:
Assay in all cases: log2 fold change, soluble protein after heating vs DMSO (PISA); higher = thermal stabilisation; K562 lysate, 10 uM; active = over 0.2 and 3.5 SD of the protein, either way, in both replicates (recomputed)
[1] = compound: C1=CC=C(C=C1)[C@H](COC2=CC3=C(C=C2)NC(=O)N3)NC(=O)C4=CC=CN(C4=O)CC5=CC(=C(C=C5)F)F
In short: (§1)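 K562 pellets were dounce-homogenised in PBS pH 7.4 containing 1 mM MgCl2, and the crude extract, at 1 mg/mL protein, was exposed to 10 μM compound for 30 min. Aliquots were heated for 3 min across 48°C-58°C, pooled, brought to 0.5% NP-40 at 4°C and spun at 21,000xg for 90 min, with the supernatant taken as soluble protein. TMTpro 16plex LC-MS/MS with equalised channel sums quantified that protein. Values are log-two fold changes in thermal stability relative to solvent controls, taken from duplicates.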

[2] = compound: CC1=C(SC2=C1C(=N[C@H](C3=NN=C(N32)C)CC(=O)N)C4=CC=C(C=C4)Cl)C
In short: as §1

[3] = compound: CC1=C2C(=CC=C1)N=C(N(C2=O)C3=CC=CC=C3C)CN4C=NC5=C(N=CN=C54)N
In short: as §1

[4] = compound: Cc1sc2c(c1C)C(c1ccc(Cl)cc1)=N[C@@H](CC(=O)OC(C)(C)C)c1nnc(C)n1-2
In short: as §1

[5] = compound: c1ccc([C@@H]2C[C@H]2NC2CCNCC2)cc1
In short: as §1

Measured: log2 fold change

LAMTOR4 (UniProt Q0VGL1)
inactive: [1] -0.014 | [2] 0.01 | [3] -0.002 | [4] -0.054 | [5] -0.056

KIZ (UniProt Q2M2Z5)
inactive: [1] 0.025 | [2] 0.015 | [3] -0.056 | [4] -0.236 | [5] 0.019

KEAP1 (UniProt Q14145)
inactive: [1] 0.029 | [2] 0.016 | [3] 0.014 | [4] -0.018 | [5] -0.02

KRIT1 (UniProt O00522)
inactive: [1] -0.026 | [2] -0.041 | [3] 0.099 | [4] -0.082

KYNU (UniProt Q16719)
inactive: [1] 0.039 | [2] -0.009 | [3] 0.026 | [4] -0.073 | [5] -0.029

KIF15 (UniProt Q9NS87)
inactive: [1] -0.008 | [2] -0.003 | [3] 0.021 | [4] -0.02 | [5] 0.013

KTN1 (UniProt G3V5Q0)
inactive: [1] -0.119 | [2] 0.092 | [3] 0.111

KLHL36 (UniProt Q8N4N3)
inactive: [1] -0.072 | [2] -0.086 | [3] -0.018 | [4] -0.011 | [5] 0.074

KNL1 (UniProt Q8NG31)
inactive: [1] 0.009 | [2] 0.003 | [3] -0.004 | [4] -0.03 | [5] -0.001

KIF2A isoform 4 (UniProt O00139)
inactive: [1] 0.006 | [2] -0.012 | [3] 0.015 | [4] 0.012 | [5] 0.04

KLC1 isoform 10 (UniProt Q07866)
inactive: [1] -0.094 | [2] -0.063

LACTB (UniProt P83111)
inactive: [1] -0.127 | [2] 0.033 | [3] -0.003 | [4] -0.011 | [5] 0.03

KPNA2 (UniProt P52292)
inactive: [1] -0.016 | [2] 0.027 | [3] 0.035 | [4] 0.003 | [5] 0.06

LARP4B (UniProt Q92615)
inactive: [1] 0.031 | [2] -0.034 | [3] 0.002 | [4] 0.03 | [5] -0.037

Copied from the listing (2 entries):
KPNA2 (UniProt P52292)
inactive: [1] -0.016 | [2] 0.027 | [3] 0.035 | [4] 0.003 | [5] 0.06

LARP4B (UniProt Q92615)
inactive: [1] 0.031 | [2] -0.034 | [3] 0.002 | [4] 0.03 | [5] -0.037

Following part.

KIF3A (UniProt Q9Y496)
inactive: [1] -0.063 | [2] 0.084 | [3] 0.018 | [4] 0.132 | [5] -0.034

KIAA0930 isoform 2 (UniProt Q6ICG6)
inactive: [1] 0.3 | [2] -0.034 | [3] -0.051 | [4] 0.07 | [5] 0.031

KIF13A isoform 4 (UniProt Q9H1H9)
inactive: [1] 0.036 | [2] -0.017 | [3] 0.024 | [4] 0.06 | [5] 0

KIAA1586 (UniProt Q9HCI6)
inactive: [1] 0.02 | [2] 0.08 | [3] 0.076 | [4] -0.093

KIF5B (UniProt P33176)
inactive: [1] 0 | [2] 0 | [3] 0.02 | [4] 0.007 | [5] 0.085

LAMP1 (UniProt P11279)
inactive: [1] -0.006 | [2] 0.008 | [3] 0.017 | [4] -0.125 | [5] -0.299

LAMTOR1 (UniProt Q6IAA8)
inactive: [1] -0.048 | [2] -0.048 | [3] -0.013 | [4] -0.023 | [5] 0.177

KIAA1549 (UniProt Q9HCM3)
inactive: [1] -0.079 | [2] 0.048

Reprinted at random: four entries already listed
KIF5B (UniProt P33176)
inactive: [1] 0 | [2] 0 | [3] 0.02 | [4] 0.007 | [5] 0.085

KIF13A isoform 4 (UniProt Q9H1H9)
inactive: [1] 0.036 | [2] -0.017 | [3] 0.024 | [4] 0.06 | [5] 0

KIAA1549 (UniProt Q9HCM3)
inactive: [1] -0.079 | [2] 0.048

LAMP1 (UniProt P11279)
inactive: [1] -0.006 | [2] 0.008 | [3] 0.017 | [4] -0.125 | [5] -0.299

Later entries.

KIAA0319L (UniProt Q8IZA0)
inactive: [1] 0.057 | [2] 0.005 | [3] -0.017 | [4] -0.017 | [5] 0.001

LANCL2 (UniProt Q9NS86)
inactive: [1] 0.024 | [2] -0.012 | [3] 0.016 | [4] 0.002 | [5] -0.064

KIF20A (UniProt O95235)
inactive: [1] -0.197 | [2] -0.174 | [3] 0.16 | [4] 0.01 | [5] 0.044

KNOP1 (UniProt Q1ED39)
inactive: [1] 0.078 | [2] 0.029 | [3] 0.177 | [4] -0.162 | [5] 0.032

KHNYN (UniProt O15037)
inactive: [1] -0.037 | [2] -0.055 | [3] -0.008 | [4] -0.008

KIF1B isoform 2 (UniProt O60333)
inactive: [1] 0.007 | [2] -0.04 | [3] 0.05 | [4] -0.017 | [5] 0.008

KPNB1 (UniProt Q14974)
inactive: [1] 0.002 | [2] 0.012 | [3] 0.012 | [4] -0.029 | [5] 0.016

KLC1 isoform 6 (UniProt Q07866)
inactive: [1] 0.001 | [2] 0.014 | [3] 0.027 | [4] 0.001 | [5] 0.033

KIAA1143 (UniProt Q96AT1)
inactive: [1] 0.013 | [2] -0.012 | [3] -0.032 | [4] -0.074 | [5] -0.043

KLHDC4 (UniProt Q8TBB5)
inactive: [1] 0.06 | [2] 0 | [3] 0.031 | [4] 0.012 | [5] 0.069

KMT2D isoform 3 (UniProt O14686)
inactive: [1] 0.021 | [2] 0.006 | [3] 0.006 | [4] -0.03 | [5] 0.044

KLF1 (UniProt Q13351)
inactive: [1] 0.009 | [2] 0.059

KRT13 (UniProt K7EMD9)
inactive: [1] -0.166 | [2] 0.093

KIF21A isoform 5 (UniProt Q7Z4S6)
inactive: [1] -0.023 | [2] 0.024 | [3] -0.003 | [4] 0.009 | [5] 0.118

KMT2A isoform 3 (UniProt Q03164)
inactive: [1] 0.043 | [2] 0.09 | [3] -0.009 | [4] -0.025 | [5] 0.016

KLHL12 isoform 2 (UniProt Q53G59)
inactive: [1] 0.152 | [2] -0.049 | [3] -0.013 | [4] 0.161

KLHL11 (UniProt Q9NVR0)
inactive: [1] 0.069 | [2] 0.043 | [3] -0.069 | [4] 0.025 | [5] 0.029

KIN (UniProt O60870)
inactive: [1] -0.028 | [2] -0.029 | [3] 0.014 | [4] -0.091 | [5] 0.014

KIFBP (UniProt Q96EK5)
inactive: [1] -0.046 | [2] 0.011 | [3] 0.011 | [4] 0.042 | [5] 0.044

KRI1 (UniProt Q8N9T8)
inactive: [1] 0.053 | [2] 0.043 | [3] 0.027 | [4] -0.048 | [5] -0.039

LAGE3 (UniProt Q14657)
inactive: [1] 0.067 | [2] -0.058 | [3] -0.087 | [4] -0.044 | [5] 0.018

KDM5C (UniProt P41229)
inactive: [1] -0.01 | [2] 0 | [3] 0.008 | [4] -0.01 | [5] 0.032

KHDRBS1 (UniProt Q07666)
inactive: [1] -0.04 | [2] 0.027 | [3] 0 | [4] 0.058 | [5] 0.045

LACTB2 (UniProt Q53H82)
inactive: [1] 0.055 | [2] -0.031 | [3] -0.008 | [4] -0.015 | [5] -0.009

KRBA1 (UniProt A5PL33)
inactive: [1] 0.034 | [2] -0.005 | [3] -0.189 | [4] 0.276 | [5] -0.085

KLHDC3 (UniProt Q9BQ90)
inactive: [1] 0.051 | [2] -0.07 | [3] 0.166 | [4] 0.015 | [5] 0.003

KIF22 (UniProt Q14807)
inactive: [1] 0.047 | [2] 0.077 | [3] 0.014 | [4] -0.159 | [5] -0.198

LARP1B, A0A3B3ISF0
inactive: [1] 0.003 | [2] 0.083 | [3] 0.038 | [4] -0.026 | [5] 0.038

KIF11 (UniProt P52732)
inactive: [1] 0.008 | [2] -0.001 | [3] 0.006 | [4] -0.002 | [5] 0

LAMTOR5 (UniProt O43504)
inactive: [1] 0.002 | [2] -0.107 | [3] 0.008 | [4] -0.032 | [5] 0.107

KIFC1 (UniProt Q9BW19)
inactive: [1] 0.046 | [2] -0.008 | [3] 0.122 | [4] 0.021 | [5] 0.029

KDSR (UniProt Q06136)
inactive: [1] -0.01 | [2] 0.036 | [3] 0.012 | [4] -0.077 | [5] -0.05

KIF4B (UniProt Q2VIQ3)
inactive: [1] 0.035 | [2] 0.009 | [3] -0.02 | [4] 0.029 | [5] 0.013

KIAA0513 (UniProt O60268)
inactive: [1] 0.089 | [2] 0.003 | [3] -0.098 | [4] 0.027 | [5] -0.018
